These are yes or no findings as the source states them, for the method shown. In cells and extracts the contact can be indirect. A result given as binding can be weak or reduced; the word gives no strength.

The assay deals with T1, caveolin-1 (rat (endogenous in rat pup intestine)) (UniProt P41350).
T1 sequence: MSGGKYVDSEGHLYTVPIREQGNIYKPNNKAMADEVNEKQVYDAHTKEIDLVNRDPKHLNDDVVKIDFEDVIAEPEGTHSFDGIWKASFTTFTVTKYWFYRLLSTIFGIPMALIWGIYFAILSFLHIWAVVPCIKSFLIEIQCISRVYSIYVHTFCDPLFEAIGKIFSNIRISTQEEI
Briefly: co-IP; rat intestine lysates immunoprecipitated with anti-caveolin-1 or anti-claudin 2 antibody, irrelevant IgG as negative control, western blot for claudin 2 and caveolin-1; rats: control, NEC, ROCK inhibitor (RI), RI + NEC. In general terms: In western blotting, separated proteins are transferred to a membrane and probed.

Consider “claudin 2 (rat (endogenous in rat pup intestine))”, for which the binding entry is “binds”.

(Values after PMC6428816.)
